These are yes or no findings as the source states them, for the method shown. Binding seen in cells or lysates may run through a third protein. Binding can be weak; no strength is given. For part of these data: Tags and fused reporters may be left off the sequences shown.
Legend:
[1] = target: HPat (endogenous) (Drosophila (endogenous in S2 cells)) (UniProt Q9VEN9); test: co-IP; endogenous proteins from Drosophila S2 cell lysate; polyclonal anti-HPat or anti-GW182 antibody (preimmune sera as control) and protein A sepharose; NET buffer (50 mM Tris/Cl pH 7.5, 150 mM NaCl, 1 mM EDTA, 0.5% NP-40), 4°C; Western blot
[2] = target: T1, TAP-tagged GW182 (Drosophila) (UniProt Q8SY33); test: pull-down; second step of the split-affinity purification: biotin eluate of the Strep-Tactin pull-down on IgG cross-linked Dynabeads that bind the protein A moiety of TAP-GW182; RNA maintaining conditions or RNase A; Western blot
T1 sequence: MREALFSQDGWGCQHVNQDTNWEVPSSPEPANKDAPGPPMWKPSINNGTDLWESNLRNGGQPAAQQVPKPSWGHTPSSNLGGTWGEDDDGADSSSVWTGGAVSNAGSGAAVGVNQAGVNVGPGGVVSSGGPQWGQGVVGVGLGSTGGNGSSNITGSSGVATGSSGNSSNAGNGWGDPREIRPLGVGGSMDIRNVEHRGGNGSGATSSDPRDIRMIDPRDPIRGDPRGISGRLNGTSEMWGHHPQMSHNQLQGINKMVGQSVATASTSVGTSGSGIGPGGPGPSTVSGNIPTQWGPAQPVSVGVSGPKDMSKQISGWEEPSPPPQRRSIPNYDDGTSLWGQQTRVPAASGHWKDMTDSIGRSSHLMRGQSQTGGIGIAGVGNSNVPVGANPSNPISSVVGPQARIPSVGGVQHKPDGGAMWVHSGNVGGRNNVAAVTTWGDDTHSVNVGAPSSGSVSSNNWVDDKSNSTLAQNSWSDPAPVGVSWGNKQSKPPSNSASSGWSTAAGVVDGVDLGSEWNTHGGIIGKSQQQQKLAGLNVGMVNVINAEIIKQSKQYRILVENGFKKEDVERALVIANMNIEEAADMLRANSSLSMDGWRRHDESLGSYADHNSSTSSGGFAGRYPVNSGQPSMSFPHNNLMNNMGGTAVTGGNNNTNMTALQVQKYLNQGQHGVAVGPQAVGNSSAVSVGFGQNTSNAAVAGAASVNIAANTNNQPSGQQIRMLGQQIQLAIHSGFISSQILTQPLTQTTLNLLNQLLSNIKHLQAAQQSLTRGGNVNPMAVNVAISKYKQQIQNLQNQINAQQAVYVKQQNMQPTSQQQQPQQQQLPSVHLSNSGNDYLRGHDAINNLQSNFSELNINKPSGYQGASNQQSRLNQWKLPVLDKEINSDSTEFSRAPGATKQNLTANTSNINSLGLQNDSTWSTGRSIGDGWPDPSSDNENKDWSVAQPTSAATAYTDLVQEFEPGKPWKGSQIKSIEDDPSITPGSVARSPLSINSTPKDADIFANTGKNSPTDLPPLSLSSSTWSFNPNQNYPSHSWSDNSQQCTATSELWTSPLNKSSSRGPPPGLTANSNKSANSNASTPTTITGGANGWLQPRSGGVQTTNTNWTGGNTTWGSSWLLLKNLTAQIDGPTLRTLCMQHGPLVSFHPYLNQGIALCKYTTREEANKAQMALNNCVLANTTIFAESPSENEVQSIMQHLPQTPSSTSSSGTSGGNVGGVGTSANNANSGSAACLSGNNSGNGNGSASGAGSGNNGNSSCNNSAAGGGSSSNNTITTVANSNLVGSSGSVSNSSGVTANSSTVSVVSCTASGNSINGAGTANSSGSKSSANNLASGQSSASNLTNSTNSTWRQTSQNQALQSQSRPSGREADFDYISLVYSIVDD

Protein sequences, listed by entry. Tags and fused reporters are not part of them. Lines headed by an entry give the natural chain unless they say otherwise; changes in a name come on top.
UniProt Q9VEN9: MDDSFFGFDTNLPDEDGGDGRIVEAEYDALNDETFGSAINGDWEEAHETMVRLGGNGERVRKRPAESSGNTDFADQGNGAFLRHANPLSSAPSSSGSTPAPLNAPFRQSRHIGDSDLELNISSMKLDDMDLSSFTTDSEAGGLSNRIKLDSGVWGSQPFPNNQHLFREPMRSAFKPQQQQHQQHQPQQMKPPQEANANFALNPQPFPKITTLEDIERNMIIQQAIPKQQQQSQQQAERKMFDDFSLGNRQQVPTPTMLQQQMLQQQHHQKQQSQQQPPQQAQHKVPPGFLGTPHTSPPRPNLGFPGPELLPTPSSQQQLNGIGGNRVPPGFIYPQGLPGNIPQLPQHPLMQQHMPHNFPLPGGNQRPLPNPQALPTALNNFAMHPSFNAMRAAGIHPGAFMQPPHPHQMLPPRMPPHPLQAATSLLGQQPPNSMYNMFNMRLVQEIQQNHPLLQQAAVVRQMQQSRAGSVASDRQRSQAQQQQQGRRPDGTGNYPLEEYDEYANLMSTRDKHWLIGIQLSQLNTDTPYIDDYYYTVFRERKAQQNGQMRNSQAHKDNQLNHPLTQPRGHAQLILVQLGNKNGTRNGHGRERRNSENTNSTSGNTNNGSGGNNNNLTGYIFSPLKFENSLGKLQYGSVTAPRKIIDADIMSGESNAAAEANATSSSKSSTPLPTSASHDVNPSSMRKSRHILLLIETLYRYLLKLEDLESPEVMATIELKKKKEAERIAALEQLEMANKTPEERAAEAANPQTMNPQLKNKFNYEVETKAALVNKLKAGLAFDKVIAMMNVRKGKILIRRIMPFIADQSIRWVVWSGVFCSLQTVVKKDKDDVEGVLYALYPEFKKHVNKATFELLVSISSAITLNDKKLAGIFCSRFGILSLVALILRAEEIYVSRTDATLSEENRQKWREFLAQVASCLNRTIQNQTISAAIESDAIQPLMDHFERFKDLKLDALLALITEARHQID
UniProt Q32KD4: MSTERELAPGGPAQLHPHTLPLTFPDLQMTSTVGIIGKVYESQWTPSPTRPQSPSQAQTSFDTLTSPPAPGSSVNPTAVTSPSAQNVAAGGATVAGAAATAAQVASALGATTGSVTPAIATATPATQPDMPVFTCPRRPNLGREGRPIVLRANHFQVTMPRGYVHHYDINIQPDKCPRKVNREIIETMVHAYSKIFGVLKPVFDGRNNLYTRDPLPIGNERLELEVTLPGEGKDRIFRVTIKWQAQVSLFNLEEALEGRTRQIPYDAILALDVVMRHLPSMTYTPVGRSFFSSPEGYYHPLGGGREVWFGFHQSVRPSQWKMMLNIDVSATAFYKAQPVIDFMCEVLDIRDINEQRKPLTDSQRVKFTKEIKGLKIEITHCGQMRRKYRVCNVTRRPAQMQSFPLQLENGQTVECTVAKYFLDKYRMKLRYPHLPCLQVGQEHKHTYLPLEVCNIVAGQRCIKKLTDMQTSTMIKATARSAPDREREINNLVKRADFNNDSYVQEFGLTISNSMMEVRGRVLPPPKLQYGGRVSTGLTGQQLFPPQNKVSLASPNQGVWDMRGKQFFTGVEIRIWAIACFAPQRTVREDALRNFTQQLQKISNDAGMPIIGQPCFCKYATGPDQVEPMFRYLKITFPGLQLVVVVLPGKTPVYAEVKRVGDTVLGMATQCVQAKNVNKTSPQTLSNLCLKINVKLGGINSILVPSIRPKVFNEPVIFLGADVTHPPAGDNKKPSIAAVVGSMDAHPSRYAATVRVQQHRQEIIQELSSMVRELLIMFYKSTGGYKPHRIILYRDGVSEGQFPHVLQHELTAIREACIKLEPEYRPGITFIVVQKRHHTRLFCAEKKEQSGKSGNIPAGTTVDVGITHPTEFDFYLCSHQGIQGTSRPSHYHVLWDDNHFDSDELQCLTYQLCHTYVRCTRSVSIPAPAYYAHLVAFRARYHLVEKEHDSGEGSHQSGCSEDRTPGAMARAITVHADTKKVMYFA

[3] = target: T2, GW182 (endogenous) (Drosophila (endogenous in S2 cells)) (UniProt Q8SY33); test: co-IP; endogenous proteins from Drosophila S2 cell lysate; polyclonal anti-HPat or anti-GW182 antibody (preimmune sera as control) and protein A sepharose; NET buffer (50 mM Tris/Cl pH 7.5, 150 mM NaCl, 1 mM EDTA, 0.5% NP-40), 4°C; Western blot
T2 sequence: T1 sequence

[4] = target: Twin-Strep-tagged AGO1 (Drosophila) (UniProt Q32KD4); test: pull-down; first step of the split-affinity purification: lysate of stable S2 cells co-expressing TAP-GW182 and Twin-Strep-AGO1 or Twin-Strep-GFP on Strep-Tactin beads, biotin eluate; RNA maintaining conditions or 10 µg/ml RNase A; 50 mM Tris/Cl pH 7.5, 150 mM NaCl, 0.5% NP40, 4°C; Western blot
[5] = target: T3, HA-tagged GW182 (Drosophila) (UniProt Q8SY33); test: co-IP; lysate of stable S2 cells expressing HA-GW182 and Myc-HPat, treated with dsRNA against YFP (control), AGO1, NOT1, EDC4 and DCP1, or XRN1; anti-HA antibody (12CA5) cross-linked to protein A sepharose; washes with NET buffer with 300 mM NaCl; quantitative Western blot
T3 sequence: T1 sequence

For “AGO1 (endogenous) (from UniProt Q32KD4 1-984)”, the binding [1] was “binds”.

With HPat (endogenous) (from UniProt Q9VEN9) the binding [2] was “binds”, the binding [3] was “binds” and the binding [4] was “binds”.

In the case of Myc-tagged HPat (Drosophila), the binding [5] is reported as “binds”.

B1: GW182 (endogenous) (protein, UniProt Q8SY33-1 1-1384)
chain: T1 sequence
For B1, the binding [1] was “binds”.

Source: paper PMC3747071
